# In the supplement of paper PMC8728848:
# The list shows a part of the results.
# B1: Spy 2007 (Streptococcus pyogenes), Q99XV3 (protein)
# chain: MKKGFFLMAMVVSLVMIAGCDKSANPKQPTQGMSVVTSFYPMYAMTKEVSGDLNDVRMIQSGAGIHSFEPSVNDVAAIYDADLFVYHSHTLEAWARDLDPNLKKSKVDVFEASKPLTLDRVKGLEDMEVTQGIDPATLYDPHTWTDPVLAGEEAVNIAKELGRLDPKHKDSYTKNAKAFKKEAEQLTEEYTQKFKKVRSKTFVTQHTAFSYLAKRFGLKQLGISGISPEQEPSPRQLKEIQDFVKEYNVKTIFAEDNVNPKIAHAIAKSTGAKVKTLSPLEAAPSGNKTYLENLRANLEVLYQQLK
# Legend:
# Experiment in all cases: glycan array binding signal (z-score within array); higher = stronger binding
# Conditions in all cases: glycan notation: IUPAC condensed, linker removed
# [1] = biological target: Man(a1-2)Man(a1-2)Man(a1-3)Man
# In short: (§1)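 The Consortium for Functional Glycomics database supplied 3228 glycan arrays, of which those lacking an available protein sequence were dropped. The binding signal, a within-array Z-score, was averaged across arrays of the same protein sequence and across linkers. Negative scores can be read as non-binding.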
# [2] = biological target: Man(a1-2)Man(a1-2)Man(a1-6)[Man(a1-3)]Man
# In short: as §1
# Man(a1-2)Man(a1-3)Man = biological target: Man(a1-2)Man(a1-3)Man
# In short: as §1
# [3] = biological target: Man(a1-2)Man(a1-3)[Man(a1-2)Man(a1-6)]Man
# In short: as §1
# [4] = biological target: Man(a1-2)Man(a1-3)[Man(a1-2)Man(a1-6)]Man(a1-6)[Man(a1-2)Man(a1-2)Man(a1-3)]Man
# In short: as §1
# [5] = biological target: Man(a1-2)Man(a1-3)[Man(a1-2)Man(a1-6)]Man(a1-6)[Man(a1-2)Man(a1-2)Man(a1-3)]Man(b1-4)GlcNAc(b1-4)GlcNAc
# In short: as §1
# [6] = biological target: Man(a1-2)Man(a1-3)[Man(a1-6)]Man(a1-6)[Man(a1-2)Man(a1-3)]Man(b1-4)GlcNAc(b1-4)GlcNAc
# In short: as §1
# [7] = biological target: Man(a1-2)Man(a1-6)[Man(a1-3)]Man(a1-6)[Man(a1-2)Man(a1-2)Man(a1-3)]Man
# In short: as §1
# [8] = biological target: Man(a1-2)Man(a1-6)[Man(a1-3)]Man(a1-6)[Man(a1-2)Man(a1-2)Man(a1-3)]Man(b1-4)GlcNAc(b1-4)GlcNAc
# In short: as §1
# Man(a1-3)[Man(a1-6)]Man = biological target: Man(a1-3)[Man(a1-6)]Man
# In short: as §1
# [9] = biological target: Man(a1-3)[Man(a1-6)]Man(a1-6)[Man(a1-2)Man(a1-3)]Man(b1-4)GlcNAc(b1-4)GlcNAc
# In short: as §1
# [10] = biological target: Man(a1-3)[Man(a1-6)]Man(a1-6)[Man(a1-3)]Man
# In short: as §1
# [11] = biological target: Man(a1-3)[Man(a1-6)]Man(a1-6)[Man(a1-3)]Man(b1-4)GlcNAc(b1-4)GlcNAc
# In short: as §1
# [12] = biological target: Man(a1-3)[Man(a1-6)]Man(b1-4)GlcNAc(b1-4)GlcNAc
# In short: as §1
# Man(a1-6)Man = biological target: Man(a1-6)Man
# In short: as §1
# Man(b1-4)GlcNAc = biological target: Man(b1-4)GlcNAc
# In short: as §1
# Neu5Ac(a2-3)Gal = biological target: Neu5Ac(a2-3)Gal
# In short: as §1
# [13] = biological target: Neu5Ac(a2-3)Gal(b1-3)GalNAc
# In short: as §1
# [14] = biological target: Neu5Ac(a2-3)Gal(b1-3)GalNAc(b1-3)Gal(a1-4)Gal(b1-4)Glc
# In short: as §1
# [15] = biological target: Neu5Ac(a2-3)Gal(b1-3)GalNAc(b1-3)Gal(b1-4)GlcNAc
# In short: as §1
# [16] = biological target: Neu5Ac(a2-3)Gal(b1-3)GalNAc(b1-4)[Neu5Ac(a2-3)]Gal(b1-4)Glc
# In short: as §1
# [17] = biological target: Neu5Ac(a2-3)Gal(b1-3)GalNAc6S
# In short: as §1
# [18] = biological target: Neu5Ac(a2-3)Gal(b1-3)GlcNAc
# In short: as §1
# [19] = biological target: Neu5Ac(a2-3)Gal(b1-3)GlcNAc(b1-3)Gal(b1-3)GlcNAc
# In short: as §1
# [20] = biological target: Neu5Ac(a2-3)Gal(b1-3)GlcNAc6S
# In short: as §1
# [21] = biological target: Neu5Ac(a2-3)Gal(b1-3)[Fuc(a1-4)]GlcNAc
# In short: as §1
# [22] = biological target: Neu5Ac(a2-3)Gal(b1-3)[Fuc(a1-4)]GlcNAc(b1-3)Gal(b1-3)[Fuc(a1-4)]GlcNAc
# In short: as §1
# [23] = biological target: Neu5Ac(a2-3)Gal(b1-3)[Fuc(a1-4)]GlcNAc(b1-3)Gal(b1-4)[Fuc(a1-3)]GlcNAc
# In short: as §1
# [24] = biological target: Neu5Ac(a2-3)Gal(b1-3)[Neu5Ac(a2-3)Gal(b1-4)]GlcNAc
# In short: as §1
# [25] = biological target: Neu5Ac(a2-3)Gal(b1-3)[Neu5Ac(a2-6)]GalNAc
# In short: as §1
# Neu5Ac(a2-3)Gal(b1-4)Glc = biological target: Neu5Ac(a2-3)Gal(b1-4)Glc
# In short: as §1
# [26] = biological target: Neu5Ac(a2-3)Gal(b1-4)GlcNAc
# In short: as §1
# [27] = biological target: Neu5Ac(a2-3)Gal(b1-4)GlcNAc(b1-2)Man(a1-3)[GlcNAc(b1-2)Man(b1-4)GlcNAc(b1-2)Man(a1-6)]Man(b1-4)GlcNAc(b1-4)GlcNAc
# In short: as §1
# [28] = biological target: Neu5Ac(a2-3)Gal(b1-4)GlcNAc(b1-2)Man(a1-3)[Neu5Ac(a2-6)Gal(b1-4)GlcNAc(b1-2)Man(a1-6)]Man(b1-4)GlcNAc(b1-4)GlcNAc
# In short: as §1
# [29] = biological target: Neu5Ac(a2-3)Gal(b1-4)GlcNAc(b1-3)Gal(b1-3)GlcNAc
# In short: as §1
# [30] = biological target: Neu5Ac(a2-3)Gal(b1-4)GlcNAc(b1-3)Gal(b1-4)GlcNAc
# In short: as §1
# [31] = biological target: Neu5Ac(a2-3)Gal(b1-4)GlcNAc(b1-3)Gal(b1-4)GlcNAc(b1-3)Gal(b1-4)GlcNAc
# In short: as §1
binder,measurement,setting,value
B1,glycan array binding signal (z-score),[1],0.221
same,glycan array binding signal (z-score),[2],1.02
same,glycan array binding signal (z-score),Man(a1-2)Man(a1-3)Man,-0.619
same,glycan array binding signal (z-score),[3],-0.508
same,glycan array binding signal (z-score),[4],-0.32
same,glycan array binding signal (z-score),[5],-0.857
same,glycan array binding signal (z-score),[6],-0.649
same,glycan array binding signal (z-score),[7],0.879
same,glycan array binding signal (z-score),[8],-0.52
same,glycan array binding signal (z-score),Man(a1-3)[Man(a1-6)]Man,0.138
same,glycan array binding signal (z-score),[9],-0.59
same,glycan array binding signal (z-score),[10],-0.793
same,glycan array binding signal (z-score),[11],0.513
same,glycan array binding signal (z-score),[12],-0.283
same,glycan array binding signal (z-score),Man(a1-6)Man,-0.677
same,glycan array binding signal (z-score),Man(b1-4)GlcNAc,-0.212
same,glycan array binding signal (z-score),Neu5Ac(a2-3)Gal,0.218
same,glycan array binding signal (z-score),[13],-0.678
same,glycan array binding signal (z-score),[14],0.678
same,glycan array binding signal (z-score),[15],-0.498
same,glycan array binding signal (z-score),[16],-0.636
same,glycan array binding signal (z-score),[17],-0.126
same,glycan array binding signal (z-score),[18],-0.163
same,glycan array binding signal (z-score),[19],0.017
same,glycan array binding signal (z-score),[20],-0.663
same,glycan array binding signal (z-score),[21],-0.485
same,glycan array binding signal (z-score),[22],-0.538
same,glycan array binding signal (z-score),[23],-0.583
same,glycan array binding signal (z-score),[24],0.451
same,glycan array binding signal (z-score),[25],1.08
same,glycan array binding signal (z-score),Neu5Ac(a2-3)Gal(b1-4)Glc,0.127
same,glycan array binding signal (z-score),[26],0.109
same,glycan array binding signal (z-score),[27],0.801
same,glycan array binding signal (z-score),[28],-0.93
same,glycan array binding signal (z-score),[29],1.57
same,glycan array binding signal (z-score),[30],-0.354
same,glycan array binding signal (z-score),[31],2.22

# Random excerpt: two records from the list, in no set order.
binder,measurement,setting,value
B1,glycan array binding signal (z-score),[18],-0.163
same,glycan array binding signal (z-score),[27],0.801
